No constants are given. Whether binding was seen depends on the method and setting. In cells and extracts the contact can be indirect. Some binding calls cover weakened binding; strength is not graded here.
Target: STAT1 used as bait in the reciprocal S-pulldown (HEK293-ACE2 cells infected with SARS-CoV-2) (UniProt P42224)
Assay: pull-down

The chains behind the UniProt entries cited, without tags or fusion partners.
UniProt P42224: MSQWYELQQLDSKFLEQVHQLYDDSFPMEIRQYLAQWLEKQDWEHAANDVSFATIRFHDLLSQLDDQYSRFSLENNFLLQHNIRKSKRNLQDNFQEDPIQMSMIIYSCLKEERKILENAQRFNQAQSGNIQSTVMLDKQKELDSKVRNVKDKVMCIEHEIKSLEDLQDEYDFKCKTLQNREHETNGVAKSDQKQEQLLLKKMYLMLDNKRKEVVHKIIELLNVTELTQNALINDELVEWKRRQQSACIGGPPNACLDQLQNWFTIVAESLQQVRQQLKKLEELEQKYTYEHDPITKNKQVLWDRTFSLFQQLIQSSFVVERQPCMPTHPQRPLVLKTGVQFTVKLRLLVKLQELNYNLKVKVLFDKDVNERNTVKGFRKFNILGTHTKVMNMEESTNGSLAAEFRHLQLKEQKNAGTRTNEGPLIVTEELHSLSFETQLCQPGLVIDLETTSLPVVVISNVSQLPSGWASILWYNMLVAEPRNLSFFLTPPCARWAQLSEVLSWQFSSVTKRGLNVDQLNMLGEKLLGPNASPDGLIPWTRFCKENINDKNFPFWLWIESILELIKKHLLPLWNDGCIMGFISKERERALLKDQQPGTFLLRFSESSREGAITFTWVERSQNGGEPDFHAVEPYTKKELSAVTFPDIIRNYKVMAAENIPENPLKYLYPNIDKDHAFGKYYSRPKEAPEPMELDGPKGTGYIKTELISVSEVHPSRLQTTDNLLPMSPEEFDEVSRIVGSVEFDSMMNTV

Substance: SARS-CoV-2 NSP13 made during infection (from UniProt P0DTD1 5325-5925)
- binding: binds
